# Library screening results

Protein sequences, listed by entry. Tags and fused reporters are not part of them.
UniProt E9BF75, entry or part of it: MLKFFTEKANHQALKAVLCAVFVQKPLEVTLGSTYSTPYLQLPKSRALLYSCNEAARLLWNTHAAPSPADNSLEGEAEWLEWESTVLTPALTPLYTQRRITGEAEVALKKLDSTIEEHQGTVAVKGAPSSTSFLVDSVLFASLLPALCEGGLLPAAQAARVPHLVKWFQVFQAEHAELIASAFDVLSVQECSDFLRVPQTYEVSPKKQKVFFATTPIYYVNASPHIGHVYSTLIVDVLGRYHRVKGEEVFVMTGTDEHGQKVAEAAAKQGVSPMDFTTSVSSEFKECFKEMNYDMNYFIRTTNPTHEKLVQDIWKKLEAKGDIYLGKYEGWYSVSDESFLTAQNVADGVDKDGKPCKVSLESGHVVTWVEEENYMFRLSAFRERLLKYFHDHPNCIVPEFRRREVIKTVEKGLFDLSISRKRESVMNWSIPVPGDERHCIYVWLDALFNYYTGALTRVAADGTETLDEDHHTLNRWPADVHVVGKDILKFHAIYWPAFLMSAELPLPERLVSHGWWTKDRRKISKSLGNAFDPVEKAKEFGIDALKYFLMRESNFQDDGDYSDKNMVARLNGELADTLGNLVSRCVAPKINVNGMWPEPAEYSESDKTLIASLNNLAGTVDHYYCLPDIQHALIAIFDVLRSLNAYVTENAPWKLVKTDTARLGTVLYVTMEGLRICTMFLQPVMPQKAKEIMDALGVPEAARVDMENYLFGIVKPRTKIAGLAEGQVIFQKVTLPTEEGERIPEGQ

From ChEMBL document CHEMBL3988442, “University of Dundee, Small-Polar-MMV Screening Library” (2021).

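Methionyl-tRNA synthetase (putative), Leishmania donovani (UniProt E9BF75). Primary screen of methionyl-tRNA synthetase; the read-out is not stated. The test concentration is not given. Values are per cent inhibition. About 68,000 compounds were tested under these conditions; 0.035% (about 24) showed 50% or more at least once.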

Results are percentages, as filed. The record does not define 0% and 100%; most values in the screen are far below 50% and negative numbers occur (in some assays of this library far below -100). The compounds are a random part of those screened.

Result for Cc1cccc(CN2CC[C@H]3CO[C@H](CNC(=O)N(C)C)[C@H]3C2)c1 was 3.759%. Result for CCS(=O)(=O)N1Cc2ncn(C)c2C(COCC2CCOCC2)C1 (stereo not shown) was 15.56%. For Cc1ccc(N2CCC(c3[nH]ncc3Cc3ccccc3)CC2)nn1 the result was 10.65%. For Cc1cc(N2CCC(C(=O)O)(n3ccc(C(C)C)n3)CC2)nc(N)n1 the result was 0.9804%. COCCNC(=O)C1CN(Cc2ccncc2)Cc2ccnn2C1 (stereo not shown) gave 15.56%. O=C1[C@H]2CN(C3CCOC3)C[C@H]2CN1c1ccccc1 (stereo partly shown) read -3.759%. CNc1cc(C2CCCN(C(=O)c3ccc(=O)[nH]n3)C2)ccn1 (stereo not shown) gave 17.72%. For O=C(NCc1nncn1C1CCCCC1)C1CNCCO1 (stereo not shown) the result was 23.03%.

With Cc1noc(C2CCCN(C(=O)CCNc3ncccn3)C2)n1 (stereo not shown) the screen gave 19.2%. O=C(c1ncn2c(C3CCN(CC4CC4)CC3)ccnc12)N1CCCC1 read 13.77%. O=C(c1cccs1)N1C[C@H]2CCC[C@@]2(COCC2CCOCC2)C1 gave 6%. Result for CNC(=O)C1(C)CCCN(c2cnccn2)C1 (stereo not shown) was 16.77%. Cc1nc(-c2ccco2)ccc1C(=O)NCCN1CCN(C)CC1 gave 18.56%. CC(=O)c1c(C)nn(S(=O)(=O)c2ccc(C)c(C)c2)c1C gave 11.6%. COc1ccc(CNc2cccnc2-n2cccn2)c(OC)c1OC read 13.2%. For N#Cc1cccnc1NC1CCN(c2ccccc2OC(F)F)C1=O (stereo not shown) the result was 4.712%.

CN(C)C(=O)COC[C@H]1CC[C@@H]2[C@@H](CCN2Cc2ccco2)O1 gave 17.79%. O=C(Nc1nnc[nH]1)C(c1cccc(F)c1)N1CCOCC1 (stereo not shown) read 10.08%. Cc1noc(C)c1CN1C[C@@H]2COC[C@H](C(=O)N3CCCO3)[C@@H]2C1 gave 7.96%. With Cc1noc(C)c1CN1C[C@H]2CNC[C@H]2C1 the screen gave 12.02%. CNC(=O)C1(C)CN(c2nc(C)cc(C)n2)CCO1 (stereo not shown) gave 5.063%. Cc1ocnc1C(=O)N1CC[C@@]2(O)CCN(C(=O)N3CCCC3)C[C@H]2C1 gave 15.41%. With Cc1csc(N2CCN(C(=O)c3cc(C4CC4)[nH]n3)CC2)n1 the screen gave 6.983%. With Cc1ccccc1CN1CC[C@H]2C[C@H](C(=O)N(C)C)O[C@H]2C1 the screen gave 5.882%.

For Cc1nc(C)c(C(=O)NCCNC(=O)Cc2cccc(F)c2)s1 the result was 7.302%. With CCc1cnc(C)nc1N1CCN(C(N)=O)CC1 the screen gave 5.177%. With CCC(CNC(=O)c1ccccn1)N1CCc2ccccc2C1 (stereo not shown) the screen gave 5.978%. CC(NC(=O)NCc1cccnc1N1CCCCC1)c1nccs1 (stereo not shown) gave 12.55%. COCCOc1ccnc(-c2noc([C@@H]3CCCN3C3CCC3)n2)c1 read 13.22%. CCOc1ccccc1CSCCn1nc2ccccn2c1=O gave 1.718%. Cc1nc(C)c(CC(=O)N2CCCN(CC3CC3)C(C(C)C)C2)c(=O)[nH]1 (stereo not shown) gave -4.237%. Result for CC(C)CN1Cc2c(C(=O)N(C)C)ncn2-c2ccccc2S1(=O)=O was 19.19%.

Result for CCOCC1CN(Cc2ccc3c(c2)OCO3)Cc2ncn(C)c21 (stereo not shown) was 11.7%. With COC(=O)c1ccc(Cl)c(NS(=O)(=O)c2cnn(C)c2)c1 the screen gave 14.84%. CC(C)(C)CNC[C@H]1Cn2ccnc2CO1 read 10.51%. Cc1cc(C(=O)N2CCCC(c3nc(C)no3)C2)on1 (stereo not shown) read 6.178%. For CC(NC(=O)CSCC(N)=O)c1ccccc1Oc1ccccc1 (stereo not shown) the result was 5.645%. Result for Cc1nc[nH]c1CN1CCn2nc(CN3Cc4ccccc4C3)cc2C1 was 13.4%. With COc1cc(C(=O)N2CCCC(c3cc(C)[nH]n3)C2)ccc1C (stereo not shown) the screen gave 6.442%. With O=C(NCCn1ccnc1)NCC(c1ccco1)N1CCCCC1 (stereo not shown) the screen gave 9.028%.

Result for COc1ccccc1Oc1ncccc1CNC(=O)C(C)CN (stereo not shown) was 10.11%. Result for C[C@H]1CN(C(=O)c2cscn2)C[C@@]12CCN(c1ccsc1)C2=O was -10.45%. With O=C(c1ncccn1)N1CCC[C@]2(C[C@H](OCC3CC3)CO2)C1 the screen gave 9.453%. O=C(CCc1ccc(-n2cnnn2)cc1)Nc1ccncc1 read 16.53%. COCCN(C)Cc1cn(C)nc1-c1ccc2c(c1)OCCO2 gave 20%. CN(Cc1ccco1)C(=O)CN1CCOC(Cn2cncn2)C1 (stereo not shown) gave 19.89%. CC1=C[C@@H](CC#N)[C@H](C(C)C)C[C@H]1CC(=O)N1CCN(CCO)CC1 read 12.09%. With CCn1cnnc1CNC(=O)N(C)Cc1ccc2c(c1)OCCO2 the screen gave 11.76%.

Result for O=C(c1ccncc1)N1C[C@@H]2CC[C@H](C1)N(S(=O)(=O)c1cccnc1)C2 was -3.922%. CS(=O)(=O)CCN1CCCC1c1noc(C2CC2)n1 (stereo not shown) read 10.42%. With CCCN1CCN(Cc2cc(Cl)cc(Cl)c2)[C@H]2CS(=O)(=O)C[C@H]21 the screen gave 9.924%. COCCNc1nc2c(c(NCc3cnc(C)c(C)c3)n1)CCNCC2 gave 16.88%.

For reference, 3 entries once more:

{"structure": "COc1cc(C(=O)N2CCCC(c3cc(C)[nH]n3)C2)ccc1C", "stereo": "stereo not shown", "Inhibition": 6.442}
{"structure": "Cc1csc(N2CCN(C(=O)c3cc(C4CC4)[nH]n3)CC2)n1", "Inhibition": 6.983}
{"structure": "COc1ccc(CNc2cccnc2-n2cccn2)c(OC)c1OC", "Inhibition": 13.2}